Data taken from paper doi:10.1101/2021.08.09.455653.
These are yes or no findings as the source states them, for the method shown. Binding can be weak; no strength is given.

Biological target: His6-sumo-kindlin
Assay: pull-down

B1: phosphorylated p130Cas (protein, UniProt P56945 1-870)
chain: MNHLNVLAKALYDNVAESPDELSFRKGDIMTVLEQDTQGLDGWWLCSLHGRQGIVPGNRLKILVGMYDKKPAGPGPGPPATPAQPQPGLHAPAPPASQYTPMLPNTYQPQPDSVYLVPTPSKAQQGLYQVPGPSPQFQSPPAKQTSTFSKQTPHHPFPSPATDLYQVPPGPGGPAQDIYQVPPSAGMGHDIYQVPPSMDTRSWEGTKPPAKVVVPTRVGQGYVYEAAQPEQDEYDIPRHLLAPGPQDIYDVPPVRGLLPSQYGQEVYDTPPMAVKGPNGRDPLLEVYDVPPSVEKGLPPSNHHAVYDVPPSVSKDVPDGPLLREETYDVPPAFAKAKPFDPARTPLVLAAPPPDSPPAEDVYDVPPPAPDLYDVPPGLRRPGPGTLYDVPRERVLPPEVADGGVVDSGVYAVPPPAEREAPAEGKRLSASSTGSTRSSQSASSLEVAGPGREPLELEVAVEALARLQQGVSATVAHLLDLAGSAGATGSWRSPSEPQEPLVQDLQAAVAAVQSAVHELLEFARSAVGNAAHTSDRALHAKLSRQLQKMEDVHQTLVAHGQALDAGRGGSGATLEDLDRLVACSRAVPEDAKQLASFLHGNASLLFRRTKATAPGPEGGGTLHPNPTDKTSSIQSRPLPSPPKFTSQDSPDGQYENSEGGWMEDYDYVHLQGKEEFEKTQKELLEKGSITRQGKSQLELQQLKQFERLEQEVSRPIDHDLANWTPAQPLAPGRTGGLGPSDRQLLLFYLEQCEANLTTLTNAVDAFFTAVATNQPPKIFVAHSKFVILSAHKLVFIGDTLSRQAKAADVRSQVTHYSNLLCDLLRGIVATTKAAALQYPSPSAAQDMVERVKELGHSTQQFRRVLGQLAAA
modifications: phosphorylated on tyrosine to an average of ~19 sites/molecule (with Lck)
  binding: binds
